Measurements as given in the supplement of paper PMC8728848.
The other results are listed elsewhere or left out.

Legend:
Experiment in all cases: glycan array binding signal (z-score within array); higher = stronger binding
Settings in all cases: glycan notation: IUPAC condensed, linker removed
[1] = target: Gal(b1-4)GlcNAc(b1-2)Man(a1-6)[GlcNAc(b1-2)Man(a1-3)]Man(b1-4)GlcNAc(b1-4)GlcNAc
Outline: (§1)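 Arrays were curated from the Consortium for Functional Glycomics database, 3228 in total, and kept only where the protein sequence was available. Binding is expressed as a within-array Z-score. This score was averaged across arrays of the same protein sequence at different concentrations or buffers and across linkers, and negative values can be read as non-binding.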

[2] = target: Gal(b1-4)GlcNAc(b1-2)Man(a1-6)[Man(a1-3)]Man(b1-4)GlcNAc(b1-4)GlcNAc
Outline: as §1

[3] = target: Gal(b1-4)GlcNAc(b1-2)[Gal(b1-4)GlcNAc(b1-4)]Man(a1-3)[Gal(b1-4)GlcNAc(b1-2)Man(a1-6)]Man(b1-4)GlcNAc(b1-4)GlcNAc
Outline: as §1

[4] = target: Gal(b1-4)GlcNAc(b1-2)[Gal(b1-4)GlcNAc(b1-4)]Man(a1-3)[Gal(b1-4)GlcNAc(b1-2)[Gal(b1-4)GlcNAc(b1-6)]Man(a1-6)]Man(b1-4)GlcNAc(b1-4)GlcNAc
Outline: as §1

[5] = target: Gal(b1-4)GlcNAc(b1-2)[Gal(b1-4)GlcNAc(b1-4)]Man(a1-3)[GlcNAc(b1-4)][Gal(b1-4)GlcNAc(b1-2)Man(a1-6)]Man(b1-4)GlcNAc(b1-4)GlcNAc
Outline: as §1

[6] = target: Gal(b1-4)GlcNAc(b1-2)[Gal(b1-4)GlcNAc(b1-4)]Man(a1-3)[GlcNAc(b1-4)][Gal(b1-4)GlcNAc(b1-2)[Gal(b1-4)GlcNAc(b1-6)]Man(a1-6)]Man(b1-4)GlcNAc(b1-4)GlcNAc
Outline: as §1

[7] = target: Gal(b1-4)GlcNAc(b1-2)[Gal(b1-4)GlcNAc(b1-6)]Man(a1-6)[Gal(b1-4)GlcNAc(b1-2)Man(a1-3)]Man(b1-4)GlcNAc(b1-4)GlcNAc
Outline: as §1

[8] = target: Gal(b1-4)GlcNAc(b1-2)[Gal(b1-4)GlcNAc(b1-6)]Man(a1-6)[Gal(b1-4)GlcNAc(b1-2)Man(a1-3)]Man(b1-4)GlcNAc(b1-4)[Fuc(a1-6)]GlcNAc
Outline: as §1

[9] = target: Gal(b1-4)GlcNAc(b1-2)[Gal(b1-4)GlcNAc(b1-6)]Man(a1-6)[GlcNAc(b1-4)][Gal(b1-4)GlcNAc(b1-2)Man(a1-3)]Man(b1-4)GlcNAc(b1-4)GlcNAc
Outline: as §1

[10] = target: Gal(b1-4)GlcNAc(b1-2)[Gal(b1-4)GlcNAc(b1-6)]Man(a1-6)[GlcNAc(b1-4)][Gal(b1-4)GlcNAc(b1-2)[Gal(b1-4)GlcNAc(b1-4)]Man(a1-3)]Man(b1-4)GlcNAc(b1-4)[Fuc(a1-6)]GlcNAc
Outline: as §1

[11] = target: Gal(b1-4)GlcNAc(b1-3)Gal(b1-3)GalNAc
Outline: as §1

[12] = target: Gal(b1-4)GlcNAc(b1-3)Gal(b1-3)GlcNAc
Outline: as §1

[13] = target: Gal(b1-4)GlcNAc(b1-3)Gal(b1-4)Glc
Outline: as §1

[14] = target: Gal(b1-4)GlcNAc(b1-3)Gal(b1-4)GlcNAc
Outline: as §1

[15] = target: Gal(b1-4)GlcNAc(b1-3)Gal(b1-4)GlcNAc(b1-2)Man(a1-3)[Gal(b1-4)GlcNAc(b1-3)Gal(b1-4)GlcNAc(b1-2)Man(a1-6)]Man(b1-4)GlcNAc(b1-4)GlcNAc
Outline: as §1

[16] = target: Gal(b1-4)GlcNAc(b1-3)Gal(b1-4)GlcNAc(b1-2)Man(a1-3)[Gal(b1-4)GlcNAc(b1-3)Gal(b1-4)GlcNAc(b1-2)Man(a1-6)]Man(b1-4)GlcNAc(b1-4)[Fuc(a1-6)]GlcNAc
Outline: as §1

[17] = target: Gal(b1-4)GlcNAc(b1-3)Gal(b1-4)GlcNAc(b1-2)[Gal(b1-4)GlcNAc(b1-3)Gal(b1-4)GlcNAc(b1-6)]Man(a1-6)[Gal(b1-4)GlcNAc(b1-3)Gal(b1-4)GlcNAc(b1-2)Man(a1-3)]Man(b1-4)GlcNAc(b1-4)GlcNAc
Outline: as §1

[18] = target: Gal(b1-4)GlcNAc(b1-3)Gal(b1-4)GlcNAc(b1-2)[Gal(b1-4)GlcNAc(b1-3)Gal(b1-4)GlcNAc(b1-6)]Man(a1-6)[Gal(b1-4)GlcNAc(b1-3)Gal(b1-4)GlcNAc(b1-2)Man(a1-3)]Man(b1-4)GlcNAc(b1-4)[Fuc(a1-6)]GlcNAc
Outline: as §1

[19] = target: Gal(b1-4)GlcNAc(b1-3)Gal(b1-4)GlcNAc(b1-3)Gal(b1-4)GlcNAc
Outline: as §1

[20] = target: Gal(b1-4)GlcNAc(b1-3)Gal(b1-4)GlcNAc(b1-3)Gal(b1-4)GlcNAc(b1-2)Man(a1-3)[Gal(b1-4)GlcNAc(b1-3)Gal(b1-4)GlcNAc(b1-3)Gal(b1-4)GlcNAc(b1-2)Man(a1-6)]Man(b1-4)GlcNAc(b1-4)GlcNAc
Outline: as §1

[21] = target: Gal(b1-4)GlcNAc(b1-3)Gal(b1-4)GlcNAc(b1-3)Gal(b1-4)GlcNAc(b1-2)Man(a1-3)[Gal(b1-4)GlcNAc(b1-3)Gal(b1-4)GlcNAc(b1-3)Gal(b1-4)GlcNAc(b1-2)Man(a1-6)]Man(b1-4)GlcNAc(b1-4)[Fuc(a1-6)]GlcNAc
Outline: as §1

[22] = target: Gal(b1-4)GlcNAc(b1-3)Gal(b1-4)GlcNAc(b1-3)Gal(b1-4)GlcNAc(b1-2)[Gal(b1-4)GlcNAc(b1-3)Gal(b1-4)GlcNAc(b1-3)Gal(b1-4)GlcNAc(b1-6)]Man(a1-6)[Gal(b1-4)GlcNAc(b1-3)Gal(b1-4)GlcNAc(b1-3)Gal(b1-4)GlcNAc(b1-2)Man(a1-3)]Man(b1-4)GlcNAc(b1-4)[Fuc(a1-6)]GlcNAc
Outline: as §1

B1: FGF1 (Homo sapiens), P05230 (protein)
chain: MAEGEITTFTALTEKFNLPPGNYKKPKLLYSNGGHFLRILPDGTVDGTRDRSDQHIQLQLSAESVGEVYIKSTETGQYLAMTDGLLYGSQTPNEECLFLERLEENHYNTYISKHAEKNWFVGLKKNGSCKRGPRTHYGQAILFLPLPASSED
glycan array binding signal (z-score) [1]: -0.288
glycan array binding signal (z-score) [2]: -0.748
glycan array binding signal (z-score) [3]: -0.616
glycan array binding signal (z-score) [4]: -1.16
glycan array binding signal (z-score) [5]: -0.296
glycan array binding signal (z-score) [6]: -0.17
glycan array binding signal (z-score) [7]: -0.741
glycan array binding signal (z-score) [8]: -0.654
glycan array binding signal (z-score) [9]: -0.657
glycan array binding signal (z-score) [10]: -0.759
glycan array binding signal (z-score) [11]: -0.589
glycan array binding signal (z-score) [12]: -0.56
glycan array binding signal (z-score) [13]: -0.542
glycan array binding signal (z-score) [14]: -0.757
glycan array binding signal (z-score) [15]: 0.247
glycan array binding signal (z-score) [16]: 0.402
glycan array binding signal (z-score) [17]: 1.88
glycan array binding signal (z-score) [18]: -0.474
glycan array binding signal (z-score) [19]: -0.647
glycan array binding signal (z-score) [20]: 0.706
glycan array binding signal (z-score) [21]: 2.98
glycan array binding signal (z-score) [22]: -0.225
